Values quoted from earlier work as cited in US20230190760A1, “ADVANTAGEOUS THERAPIES FOR DISORDERS MEDIATED BY IKAROS OR AIOLOS” (C4 Therapeutics, Inc., priority 2020, published 2023).
Some results were stated once for a whole list of compounds, not compound by compound.

Test system: multiclass refractory myeloma
Conditions: range over belantamab and selinexor; cited from earlier work

In the case of `O=C(/C=C\n1cnc(-c2cc(C(F)(F)F)cc(C(F)(F)F)c2)n1)NNc1cnccn1` [selinexor], the “progression free survival intervals” value is listed as 3.7-4.9 months and the response rates is listed as 26-31%.
